Assay results from US20080131511A1, “Pharmaceutical Composition for Treatment of Tear and Salivary Fluid Drying” (Astellas Pharma, Inc., priority 2004, published 2008).

Tested on: lacrimal gland
Experiment: Tear fluid secretion after subcutaneous bolus administration
Type: in vivo, mouse (male Balb/c)
Settings: mice; s.c. bolus
Procedure: Male Balb/c mice were used in the test.
(§1) The compound A was dissolved in physiological saline to a concentration of 1, 3, 10, 30 or 100 mg/5 ml, and 5 ml/kg of the drug solution was administered under the dorsal skin. Secreted amounts of salivary and tear fluid were measured just before the administration of compound A and 10, 20, 30, 40 and 50 minutes after the administration. The sweating action was measured 10 minutes after the administration. Also, the growth acceleration action was measured 6 hours after the administration.
as §1, with “Pilocarpine was dissolved” for “The compound A was dissolved”, “concentration of 0.03, 0.1, 0.3, 1, 3 or 10 mg/5 ml, or cevimeline to a concentration of 0.3, 1, 3,” for “concentration of 1, 3,”, “administration of pilocarpine or cevimeline and 10,” for “administration of compound A and 10,”
The mouth of a mouse was wiped with a cotton ball whose weight had been measured in advance, and the incremental weight was used as the amount of salivary fluid. […] From the measurement results, area under the secreted amount-versus-time curve (AUC) was calculated. […]

| SMILES | dose for tear fluid secretion relative to dose for salivary fluid secretion |
| --- | --- |
| CC1OC2(CS1)CN1CCC2CC1 (centres unmarked) [cevimeline] | 3 times |
| CC[C@@H]1C(=O)OC[C@@H]1Cc1cncn1C [pilocarpine] | 10 times |
